# In PMC11261793:
# Protein sequences, listed by entry. Tags and fused reporters are not part of them.
# UniProt Q92597: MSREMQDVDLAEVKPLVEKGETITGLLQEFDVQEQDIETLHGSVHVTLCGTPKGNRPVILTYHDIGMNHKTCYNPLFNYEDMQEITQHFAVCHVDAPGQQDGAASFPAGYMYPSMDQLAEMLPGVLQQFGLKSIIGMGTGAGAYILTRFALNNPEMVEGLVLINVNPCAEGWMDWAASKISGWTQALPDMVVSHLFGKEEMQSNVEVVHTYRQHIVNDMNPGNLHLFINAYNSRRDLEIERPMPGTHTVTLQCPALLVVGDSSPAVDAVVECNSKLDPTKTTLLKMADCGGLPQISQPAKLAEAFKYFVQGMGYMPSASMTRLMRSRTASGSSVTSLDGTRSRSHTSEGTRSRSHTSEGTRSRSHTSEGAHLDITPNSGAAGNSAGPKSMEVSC
# These are yes or no findings as the source states them, for the method shown. In cells and extracts the contact can be indirect. Some entries that bind do so weakly or less than the wild type.
# Tests used:
# Test in all cases: co-IP; 400 μg whole cell lysate (Pierce IP lysis buffer) of PANC-1 vector control and NDRG1 overexpressing cells incubated overnight at 4 °C with NDRG1, PKCα or β-catenin antibody or isotype control antibody; protein A/G magnetic beads 1.5 h/4 °C; washed 5 times with ice-cold PBS; western blotting
# [1] = target: N-myc downstream regulated gene-1 (NDRG1), FLAG-tagged (UniProt Q92597)
# [2] = target: β-catenin (human (endogenous in PANC-1)) (UniProt P35222)
# [3] = target: protein kinase Cα (PKCα) (human (endogenous in PANC-1)) (UniProt P17252)
binding [1],binding [2],binding [3],Substance
binds,binds,–,protein kinase Cα (PKCα) (from UniProt P17252 1-672) (enzyme)
binds,–,binds,β-catenin (from UniProt P35222 1-781)
